Measured values from the supplement of paper PMC6411743.
± gives the standard deviation of the averaged measurements. The entries are a selection whose mix differs from that of the whole data set.

Key:
Assay in all cases: NP40-soluble protein abundance relative to vehicle (solubility fold change) (ratio); higher = more soluble protein in presence of AMP-PNP
[1] = target: T1, NHLRC2 (UniProt Q8NBF2)
T1 sequence (whole entry): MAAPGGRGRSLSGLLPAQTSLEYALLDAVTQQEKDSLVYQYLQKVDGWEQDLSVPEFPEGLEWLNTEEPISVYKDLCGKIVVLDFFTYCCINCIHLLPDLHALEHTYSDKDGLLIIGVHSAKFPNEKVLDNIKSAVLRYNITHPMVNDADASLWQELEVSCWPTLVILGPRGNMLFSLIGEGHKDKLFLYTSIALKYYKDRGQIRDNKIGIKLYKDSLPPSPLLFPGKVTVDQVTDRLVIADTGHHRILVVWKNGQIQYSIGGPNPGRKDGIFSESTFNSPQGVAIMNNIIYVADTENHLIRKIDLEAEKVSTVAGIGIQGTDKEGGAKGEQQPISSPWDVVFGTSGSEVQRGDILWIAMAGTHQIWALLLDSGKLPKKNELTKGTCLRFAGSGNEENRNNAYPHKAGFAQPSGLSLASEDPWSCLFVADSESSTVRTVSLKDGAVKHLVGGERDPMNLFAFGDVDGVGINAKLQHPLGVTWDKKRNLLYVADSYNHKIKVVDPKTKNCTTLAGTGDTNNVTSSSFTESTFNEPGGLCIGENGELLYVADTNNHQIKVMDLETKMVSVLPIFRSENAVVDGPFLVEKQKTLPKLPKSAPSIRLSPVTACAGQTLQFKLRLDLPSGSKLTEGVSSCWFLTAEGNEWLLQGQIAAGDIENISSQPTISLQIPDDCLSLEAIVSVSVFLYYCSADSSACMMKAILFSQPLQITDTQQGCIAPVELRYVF
Procedure, shortened: (§1)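 Jurkat crude lysate (Dounce-homogenised) was treated with eight concentrations from 0.1 to 10 mM for 10 min at room temperature, then 3 min at 37 °C. It was solubilised with 0.8% NP40 and benzonase (60 min, 4 °C) and ultracentrifuged, and the supernatant was TMT-labelled for LC-MS/MS. Intensities were vsn-normalised, and the value is the fold change against the NP40-processed vehicle per replicate, from three independent experiments.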

[2] = target: T2, PLD3 (UniProt Q8IV08)
T2 sequence (whole entry): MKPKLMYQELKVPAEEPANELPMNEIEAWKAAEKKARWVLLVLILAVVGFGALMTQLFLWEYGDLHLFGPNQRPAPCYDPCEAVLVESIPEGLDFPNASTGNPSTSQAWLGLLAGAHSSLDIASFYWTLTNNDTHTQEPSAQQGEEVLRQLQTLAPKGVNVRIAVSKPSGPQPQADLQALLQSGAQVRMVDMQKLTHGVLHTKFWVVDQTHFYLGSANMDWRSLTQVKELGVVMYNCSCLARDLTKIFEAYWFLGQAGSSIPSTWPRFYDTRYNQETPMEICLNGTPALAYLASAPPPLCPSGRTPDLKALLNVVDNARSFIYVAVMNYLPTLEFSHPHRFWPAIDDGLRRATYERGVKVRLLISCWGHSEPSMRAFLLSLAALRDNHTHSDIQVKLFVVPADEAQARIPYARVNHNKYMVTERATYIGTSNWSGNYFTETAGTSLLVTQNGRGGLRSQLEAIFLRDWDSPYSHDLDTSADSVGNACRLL
Procedure, shortened: as §1

[3] = target: T3, SLFN11 (UniProt Q7Z7L1)
T3 sequence (whole entry): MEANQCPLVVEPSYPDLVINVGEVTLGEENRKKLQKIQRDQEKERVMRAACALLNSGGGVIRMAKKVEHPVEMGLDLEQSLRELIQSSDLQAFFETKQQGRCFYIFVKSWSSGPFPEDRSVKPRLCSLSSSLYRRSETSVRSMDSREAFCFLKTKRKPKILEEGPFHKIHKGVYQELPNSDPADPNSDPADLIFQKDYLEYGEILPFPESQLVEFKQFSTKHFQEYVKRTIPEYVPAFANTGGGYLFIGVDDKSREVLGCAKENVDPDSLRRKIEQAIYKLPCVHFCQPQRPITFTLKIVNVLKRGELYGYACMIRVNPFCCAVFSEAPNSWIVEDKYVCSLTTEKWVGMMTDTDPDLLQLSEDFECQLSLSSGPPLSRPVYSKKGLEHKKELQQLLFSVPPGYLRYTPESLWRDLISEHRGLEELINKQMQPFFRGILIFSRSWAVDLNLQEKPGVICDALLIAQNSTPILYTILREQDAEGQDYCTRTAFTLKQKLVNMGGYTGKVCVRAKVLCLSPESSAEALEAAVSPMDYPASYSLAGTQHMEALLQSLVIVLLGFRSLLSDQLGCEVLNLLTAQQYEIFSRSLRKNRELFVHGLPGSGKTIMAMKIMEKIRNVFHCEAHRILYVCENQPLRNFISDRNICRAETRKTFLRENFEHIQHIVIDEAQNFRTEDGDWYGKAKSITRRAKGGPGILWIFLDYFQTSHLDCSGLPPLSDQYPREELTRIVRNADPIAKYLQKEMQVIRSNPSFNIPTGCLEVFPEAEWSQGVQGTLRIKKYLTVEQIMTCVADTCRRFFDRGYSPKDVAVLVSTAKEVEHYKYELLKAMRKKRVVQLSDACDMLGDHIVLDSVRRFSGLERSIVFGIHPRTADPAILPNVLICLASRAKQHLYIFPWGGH
Procedure, shortened: as §1

[4] = target: T4, SPATS2 (UniProt Q86XZ4)
T4 sequence (whole entry): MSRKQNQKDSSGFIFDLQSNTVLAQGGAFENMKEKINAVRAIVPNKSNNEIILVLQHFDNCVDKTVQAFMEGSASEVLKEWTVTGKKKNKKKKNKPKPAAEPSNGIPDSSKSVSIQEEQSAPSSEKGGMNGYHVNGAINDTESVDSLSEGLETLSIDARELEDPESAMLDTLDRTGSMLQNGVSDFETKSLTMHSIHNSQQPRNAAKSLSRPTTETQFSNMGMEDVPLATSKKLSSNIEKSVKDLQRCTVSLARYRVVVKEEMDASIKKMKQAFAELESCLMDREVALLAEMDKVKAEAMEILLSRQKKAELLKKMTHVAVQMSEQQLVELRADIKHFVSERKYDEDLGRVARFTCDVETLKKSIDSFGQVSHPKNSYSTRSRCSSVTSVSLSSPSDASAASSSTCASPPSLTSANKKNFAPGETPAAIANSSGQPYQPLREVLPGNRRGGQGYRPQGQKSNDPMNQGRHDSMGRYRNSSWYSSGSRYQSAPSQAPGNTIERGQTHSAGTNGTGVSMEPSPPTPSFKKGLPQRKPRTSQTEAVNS
Procedure, shortened: as §1

[5] = target: T5, STX12 (UniProt Q86Y82)
T5 sequence (whole entry): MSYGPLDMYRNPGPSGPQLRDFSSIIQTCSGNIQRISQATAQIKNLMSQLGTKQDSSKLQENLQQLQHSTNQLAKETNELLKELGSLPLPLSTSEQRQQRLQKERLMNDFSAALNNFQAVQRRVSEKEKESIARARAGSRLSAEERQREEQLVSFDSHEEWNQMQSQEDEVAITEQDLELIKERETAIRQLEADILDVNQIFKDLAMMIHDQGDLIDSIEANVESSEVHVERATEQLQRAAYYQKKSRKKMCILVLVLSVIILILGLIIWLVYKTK
Procedure, shortened: as §1

SMILES: Nc1ncnc2c1ncn2[C@@H]1O[C@H](COP(=O)(O)OP(=O)(O)NP(=O)(O)O)[C@@H](O)[C@H]1O [adenylyl imidodiphosphate]
- NP40-soluble protein abundance ([1]; concentration: 1mM): 1.01 ± 0.014
- NP40-soluble protein abundance ([1]; concentration: 2mM): 0.967 ± 0.032
- NP40-soluble protein abundance ([1]; concentration: 4mM): 0.9683 ± 0.0036
- NP40-soluble protein abundance ([1]; concentration: 6mM): 0.967 ± 0.03
- NP40-soluble protein abundance ([1]; concentration: 8mM): 0.958 ± 0.022
- NP40-soluble protein abundance ([1]; concentration: 10mM): 0.916 ± 0.015
- NP40-soluble protein abundance ([2]; concentration: 1mM): 0.99 ± 0.038
- NP40-soluble protein abundance ([2]; concentration: 2mM): 0.967 ± 0.013
- NP40-soluble protein abundance ([2]; concentration: 4mM): 0.987 ± 0.029
- NP40-soluble protein abundance ([2]; concentration: 6mM): 0.9623 ± 0.0042
- NP40-soluble protein abundance ([2]; concentration: 8mM): 0.9778 ± 0.0079
- NP40-soluble protein abundance ([2]; concentration: 10mM): 0.988 ± 0.025
- NP40-soluble protein abundance ([3]; concentration: 1mM): 1.05 ± 0.018
- NP40-soluble protein abundance ([3]; concentration: 2mM): 1.02 ± 0.095
- NP40-soluble protein abundance ([3]; concentration: 4mM): 1.04 ± 0.072
- NP40-soluble protein abundance ([3]; concentration: 6mM): 1.01 ± 0.04
- NP40-soluble protein abundance ([3]; concentration: 8mM): 1.03 ± 0.08
- NP40-soluble protein abundance ([3]; concentration: 10mM): 1.03 ± 0.13
- NP40-soluble protein abundance ([4]; concentration: 1mM): 1.019 ± 0.0082
- NP40-soluble protein abundance ([4]; concentration: 2mM): 1.01 ± 0.038
- NP40-soluble protein abundance ([4]; concentration: 4mM): 1.022 ± 0.0088
- NP40-soluble protein abundance ([4]; concentration: 6mM): 1.04 ± 0.013
- NP40-soluble protein abundance ([4]; concentration: 8mM): 1.02 ± 0.038
- NP40-soluble protein abundance ([4]; concentration: 10mM): 1.05 ± 0.036
- NP40-soluble protein abundance ([5]; concentration: 1mM): 1.01 ± 0.016
- NP40-soluble protein abundance ([5]; concentration: 2mM): 1.08 ± 0.059
- NP40-soluble protein abundance ([5]; concentration: 4mM): 1.01 ± 0.051
- NP40-soluble protein abundance ([5]; concentration: 6mM): 1.02 ± 0.031
- NP40-soluble protein abundance ([5]; concentration: 8mM): 0.984 ± 0.016
- NP40-soluble protein abundance ([5]; concentration: 10mM): 0.992 ± 0.049
